Measured values published in US20090300848A1, “EPOXIDE-BASED TANNAGE SYSTEM” (BLC LEATHER TECHNOLOGY CENTRE LTD, priority 2006, published 2009).

Legend:
[1] = test system: skin collagen; assay: hydrothermal stability, shrinkage temperature (Ts) of tanned leather by modified DSC
[2] = residual, unfixed dye (Napthol blue black) at penetration and fixation stages
[3] = air dried leather without any post tannage treatment
[4] = dye concentration 0.25 % wt, pH 5
[5] = dye concentration 0.5 % wt, pH 5

With `O=CCCCC=O` [GA, glutaraldehyde, reference compound] the Ts [1, 3] was 78 °C, the “residual, unfixed dye” value [2, 4] was 1.4% and the “residual, unfixed dye” value ([2]; dye concentration 0.25 % wt, pH 7) was 6.4%. For the same compound, the “residual, unfixed dye” value [2, 5] was 1.5% and the “residual, unfixed dye” value ([2]; dye concentration 0.5 % wt, pH 7) was 11.6%.
In the case of `O=c1n(CC2CO2)c(=O)n(CC2CO2)c(=O)n1CC1CO1` (stereo not drawn) [TGIC, trigycidyl isocyanurate], the Ts [1, 3] is reported as 85 °C, the Ts ([1]; pH 9.2, 5% offer) is reported as 80 °C and the Ts ([1]; pH 9.2, about 10% offer, maximum effect) is reported as “greater than 85 °C”. The “residual, unfixed dye” value [2, 4] was 0.7%, the “residual, unfixed dye” value ([2]; dye concentration 0.25 % wt, pH 8) was 3.3% and the “residual, unfixed dye” value [2, 5] was 1.0%. The “residual, unfixed dye” value ([2]; dye concentration 0.5 % wt, pH 8) was 4.9%.
